In PubChem BioAssay AID304 (DTP/NCI, 2004):
The list does not hold the whole screen: it gathers tests that were run many times, whatever their T/C, doses with no T/C, and many T/C values between a quarter and a half above the control. Further doses and runs are listed elsewhere. T/C gives the treated animals as a percentage of the vehicle group. Some doses have a count of surviving animals in place of a T/C: the source holds a T/C of zero for them, seemingly a mark for toxic or unscored doses. Some survivor counts are full or nearly so, which does not show that the dose was tolerated: survival well below the control is almost never listed, so the zero probably covers shortened survival too. Survivors were counted at the toxicity check, usually on the fifth day, unless a day is given; later deaths do not show. Schedule codes are those of the source, taken here to give the interval after Q, in days (D) or hours (H), and the number of doses after X. Some doses were run more than once; the results are listed from low to high. For survival time, the PubChem record calls one and a half times the control and up active, and a quarter to a half above the control has no call in these data; cut-offs in other NCI protocols can differ.

Test system: Lymphosarcoma Mecca ip in C3AKF1 mice, survival T/C%
Assay: NCI In Vivo Anticancer Drug Screen. Data for tumor model Lymphosarcoma Mecca (intraperitoneal) in C3AKF1 (CHKRF1) mice
Settings: T/C endpoint: survival time, mean or median, higher T/C = longer survival
Procedure: The antitumor activity of compounds was measured in mice bearing transplantable tumors. Survival or tumor size were measured and the results are expressed as the measurement made in the treated group (T) divided by the measurement made in the vehicle treated control group (C). The tumor model used in this assay is Lymphosarcoma Mecca (intraperitoneal) in C3AKF1 (CHKRF1) mice

[1] = dose: 150.0 mg/kg/injection, schedule: Q01DX010 (ip), vehicle: saline
[2] = dose: 8.0 mg/kg/injection, schedule: Q01DX010 (ip), vehicle: saline
[3] = dose: 32.0 mg/kg/injection, schedule: Q01DX010 (ip), vehicle: saline
[4] = dose: 64.0 mg/kg/injection, schedule: Q01DX010 (ip), vehicle: saline
[5] = dose: 50.0 mg/kg/injection, schedule: Q01DX010 (ip), vehicle: saline
[6] = dose: 100.0 mg/kg/injection, schedule: Q01DX010 (ip), vehicle: saline
[7] = dose: 200.0 mg/kg/injection, schedule: Q01DX010 (ip), vehicle: saline
[8] = dose: 40.0 mg/kg/injection, schedule: Q01DX010 (ip), vehicle: saline
[9] = dose: 4.0 mg/kg/injection, schedule: Q01DX010 (ip), vehicle: saline
[10] = dose: 2.0 mg/kg/injection, schedule: Q01DX010 (ip), vehicle: saline

CO[C@@H]1[C@@H](OC2OC(C)C(OC3CC(C)(O)C(OC(=O)CC(C)C)C(C)O3)C(N(C)C)C2O)[C@@H](CC=O)C[C@@H](C)C(=O)/C=C/C2O[C@H]2C[C@@H](C)OC(=O)C[C@H]1OC(C)=O (stereo partly drawn) was tested, and the survivor count [1] was 6 of 6 and the survivor count (dose: 300.0 mg/kg/injection, schedule: Q01DX010 (ip), vehicle: saline) was 5 of 6.
c1ccc(CNc2ncnc3[nH]ncc23)cc1 was tested, and the T/C [2] was 125 % of control, the survivor count [3] was 6 of 6 and the survivor count [4] was 6 of 6.
In the case of CS(=O)(=O)OCCC(=O)N1CCN(C(=O)CCOS(C)(=O)=O)CC1, the T/C [5] is reported as 125 and 130 % of control, the T/C [6] is reported as 140 % of control and the survivor count [7] is reported as 6 of 6.
In the case of CS(=O)(=O)OCCCCOS(C)(=O)=O, the survivor count (dose: 12.5 mg/kg/injection, schedule: Q01DX010 (ip), vehicle: saline) is reported as 6 of 6 and the survivor count (dose: 25.0 mg/kg/injection, schedule: Q01DX010 (ip), vehicle: saline) is reported as 6 of 6.
With C[C@@H]1C[C@@H]([C@H](O)CC2CC(=O)NC(=O)C2)C(=O)[C@@H](C)C1 the survivor count (dose: 20.0 mg/kg/injection, schedule: Q01DX010 (ip), vehicle: saline) was 6 of 6 and the survivor count [8] was 5 of 6 and 6 of 6.
For CS(=O)(=O)OCCCl, the survivor count [1] was 0 of 6.
CC/C(=C(/CC)c1ccc(O)cc1)c1ccc(O)cc1 was tested, and the survivor count (dose: 25.0 mg/kg/injection, schedule: Q01DX010 (sc), vehicle: steroid suspending solution) was 6 of 6.
In the case of COc1cc(-c2ccc(Nc3ccccc3C(=O)O)c(OC)c2)ccc1N, the T/C [8] is reported as 125 % of control and the T/C (dose: 80.0 mg/kg/injection, schedule: Q01DX010 (ip), vehicle: saline) is reported as 130 % of control.
In the case of O=c1cnn(C2OC(CO)C(O)C2O)c(=O)[nH]1 (stereo not drawn), the survivor count [7] is reported as 6 of 6, the survivor count (dose: 400.0 mg/kg/injection, schedule: Q01DX010 (ip), vehicle: saline) is reported as 6 of 6 and the survivor count (dose: 800.0 mg/kg/injection, schedule: Q01DX010 (ip), vehicle: saline) is reported as 6 of 6. The survivor count (dose: 1600.0 mg/kg/injection, schedule: Q01DX010 (ip), vehicle: saline) was 6 of 6.
With COc1cc(-c2ccc(Nc3ccccc3C(=O)O)c(OC)c2)ccc1Nc1ccccc1C(=O)O the T/C [5] was 133 and 140 % of control and the T/C [6] was 138 and 140 % of control.
For NC(=O)N(CCCl)N=O, the survivor count (dose: 0.5 mg/kg/injection, schedule: Q01DX010 (ip), vehicle: saline) was 0 of 6 and the survivor count [9] was 6 of 6.
With CCOC(N)=O the survivor count (dose: 1000.0 mg/kg/injection, schedule: Q01DX010 (ip), vehicle: saline) was 4 of 6 and 6 of 6.
Nc1nc(SCc2ccccc2)c2[nH]cnc2n1 was tested, and the T/C [9] was 125 % of control and the survivor count [3] was 6 of 6.
In the case of Nc1nc(=S)c2ncn(C3OC(CO)C(O)C3O)c2[nH]1 (stereo not drawn), the T/C [10] is reported as 135 % of control.
O=c1[nH]c(=O)n(C2CC(O)C(CO)O2)cc1F (stereo not drawn) was tested, and the T/C [8] was 131 and 145 % of control.
S=P(N1CC1)(N1CC1)N1CC1 was tested, and the survivor count (dose: 1.0 mg/kg/injection, schedule: Q01DX010 (ip), vehicle: saline) was 6 of 6, the survivor count [10] was 6 of 6 and the T/C [9] was 136 % of control. For the same compound, the survivor count [2] was 6 of 6.
In the case of Clc1ncnc2nc[nH]c12, the T/C (dose: 7.5 mg/kg/injection, schedule: Q01DX010 (ip), vehicle: saline) is reported as 136 % of control and the T/C (dose: 60.0 mg/kg/injection, schedule: Q01DX010 (ip), vehicle: saline) is reported as 127 % of control.
With O=C(Nc1ccc(C2=NCCN2)cc1)c1cccc(C(=O)Nc2ccc(C3=NCCN3)cc2)c1 the T/C [2] was 140 % of control, the T/C [3] was 134 and 145 % of control and the T/C [4] was 131 % of control.
